Laboratory results from patent US20020028487A1.
No constants are given. Whether binding was seen depends on the method and setting. Some results given as binding are weak or reduced against the parent protein; the word gives no strength.

The chains behind the UniProt entries cited, without tags or fusion partners. Residues count along the entry.
GST-p300^744-1571 (Q09472, residues 744-1571): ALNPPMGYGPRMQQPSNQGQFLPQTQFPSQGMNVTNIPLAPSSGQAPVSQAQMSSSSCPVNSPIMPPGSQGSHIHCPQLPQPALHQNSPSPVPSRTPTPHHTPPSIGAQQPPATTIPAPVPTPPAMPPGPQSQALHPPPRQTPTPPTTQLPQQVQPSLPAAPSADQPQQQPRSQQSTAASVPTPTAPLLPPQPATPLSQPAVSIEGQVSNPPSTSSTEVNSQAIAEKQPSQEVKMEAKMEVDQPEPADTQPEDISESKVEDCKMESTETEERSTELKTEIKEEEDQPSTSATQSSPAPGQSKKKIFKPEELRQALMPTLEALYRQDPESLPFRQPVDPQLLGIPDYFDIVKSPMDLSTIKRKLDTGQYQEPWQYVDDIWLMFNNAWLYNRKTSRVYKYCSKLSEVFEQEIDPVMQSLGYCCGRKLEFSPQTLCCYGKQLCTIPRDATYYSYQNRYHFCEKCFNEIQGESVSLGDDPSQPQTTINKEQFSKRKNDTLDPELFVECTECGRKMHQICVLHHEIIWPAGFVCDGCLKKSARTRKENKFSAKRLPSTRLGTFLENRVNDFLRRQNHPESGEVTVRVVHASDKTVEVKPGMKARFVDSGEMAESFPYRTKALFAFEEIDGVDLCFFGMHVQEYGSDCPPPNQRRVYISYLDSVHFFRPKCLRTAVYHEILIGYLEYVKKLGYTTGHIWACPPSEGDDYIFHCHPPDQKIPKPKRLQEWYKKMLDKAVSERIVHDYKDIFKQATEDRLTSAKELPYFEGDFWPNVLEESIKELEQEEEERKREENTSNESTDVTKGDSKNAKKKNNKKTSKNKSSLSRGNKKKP
GST-p300^1572-2370 (Q09472, residues 1572-2370): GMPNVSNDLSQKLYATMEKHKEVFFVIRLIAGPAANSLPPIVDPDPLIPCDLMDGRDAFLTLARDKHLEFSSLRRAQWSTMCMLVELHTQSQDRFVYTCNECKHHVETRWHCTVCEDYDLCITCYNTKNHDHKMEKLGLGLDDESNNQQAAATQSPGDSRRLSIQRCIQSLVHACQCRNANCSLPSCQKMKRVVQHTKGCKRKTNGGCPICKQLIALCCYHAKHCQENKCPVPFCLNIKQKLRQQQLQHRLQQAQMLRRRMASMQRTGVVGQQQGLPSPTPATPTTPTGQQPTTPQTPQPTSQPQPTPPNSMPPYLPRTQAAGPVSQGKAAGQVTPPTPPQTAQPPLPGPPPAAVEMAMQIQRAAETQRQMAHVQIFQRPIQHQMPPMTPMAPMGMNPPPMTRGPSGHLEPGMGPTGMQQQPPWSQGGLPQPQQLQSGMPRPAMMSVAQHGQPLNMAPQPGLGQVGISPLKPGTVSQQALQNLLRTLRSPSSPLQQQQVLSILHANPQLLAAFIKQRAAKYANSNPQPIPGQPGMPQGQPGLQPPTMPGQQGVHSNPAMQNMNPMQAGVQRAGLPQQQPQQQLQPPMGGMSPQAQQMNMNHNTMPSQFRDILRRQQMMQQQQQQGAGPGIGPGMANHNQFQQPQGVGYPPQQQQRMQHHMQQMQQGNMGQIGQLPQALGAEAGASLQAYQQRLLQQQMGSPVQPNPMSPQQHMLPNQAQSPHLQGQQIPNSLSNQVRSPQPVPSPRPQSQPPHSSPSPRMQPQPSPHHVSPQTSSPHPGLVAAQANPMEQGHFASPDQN

Experiments:
[1] = molecular target: GST-p300^1572-2370 (UniProt Q09472); assay: GST pull-down of in vitro translated protein
[2] = molecular target: GST-p300^744-1571 (UniProt Q09472); assay: GST pull-down of in vitro translated protein
[3] = molecular target: GST-p300^1572-2370 (UniProt Q09472); assay: GST pull-down of in vitro translated protein, SDS-PAGE and autoradiography
[4] = molecular target: GST-p300^744-1571 (UniProt Q09472); assay: as above

Measured: binding

B1: JMY^335-588 (protein)
chain: ELLDKHKTIESMVELLDLYQMEDEAYSSLAEATTELYQYLLQPFRDMRELAMLRRQQIKISMENDYLGPRRIESLQKEDADWQRKAHMAVLSIQDLTVKYFEITAKAQKAVYDRMRADQKKFGKASWAAAAERMEKLQYAVSKETLQMMRAKEICLEQKKHALKEEMQSLQGGTEAIARLDQLESDYYDLQLQLYEVQFEILKCEELLLTAQLESIKRLISEKRDEVVYYDTYESMEAMLEKEEMAASVHAQRE
binds: all assays above
